For test [1], the target named is T1, YCF4 (Arabidopsis thaliana (endogenous in thylakoids)) (UniProt P56788).
T1 sequence: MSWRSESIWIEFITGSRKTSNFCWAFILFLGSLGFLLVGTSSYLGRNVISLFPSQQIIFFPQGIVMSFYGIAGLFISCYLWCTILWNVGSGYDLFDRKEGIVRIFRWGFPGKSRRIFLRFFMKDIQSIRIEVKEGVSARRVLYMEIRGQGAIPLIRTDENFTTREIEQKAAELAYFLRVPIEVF
Put plainly: affinity purification with mass spectrometry; precipitates of not cross-linked, β-DM-solubilised wild-type thylakoids with FPB1, PAM68 and YCF4 antibodies and preimmune serum; LC-MS/MS of gel slices.

Test [2] has as its target FPB1 (Facilitator of PsbB biogenesis1) (Arabidopsis thaliana (endogenous in thylakoids)). The description is as above.

No constants are given. Whether binding was seen depends on the method and setting. In cells and extracts the contact can be indirect. Here binding means that the protein was enriched with, or labelled near, the bait; the list need not be complete. For part of these data: A no says only that the protein was not detected with the bait.

B1: Alb3 (protein, UniProt Q8LBP4 57-462)
chain: SLNEIPPFHGLDSSVDIGAIFTRAESLLYTIADAAVVGADSVVTTDSSAVQKSGGWFGFISDAMELVLKILKDGLSAVHVPYAYGFAIILLTIIVKAATYPLTKQQVESTLAMQNLQPKIKAIQQRYAGNQERIQLETSRLYKQAGVNPLAGCLPTLATIPVWIGLYQALSNVANEGLFTEGFFWIPSLGGPTSIAARQSGSGISWLFPFVDGHPPLGWYDTVAYLVLPVLLIASQYVSMEIMKPPQTDDPAQKNTLLVFKFLPLMIGYFALSVPSGLSIYWLTNNVLSTAQQVYLRKLGGAKPNMDENASKIISAGRAKRSIAQPDDAGERFRQLKEQEKRSKKNKAVAKDTVELVEESQSESEEGSDDEEEEAREGALASSTTSKPLPEVGQRRSKRSKRKRTV
On to B1, for which the binding result in test [1] is “no binding”; in test [2] it was “binds”.

B2: cpSRP54 (protein, UniProt P37107 76-564)
chain: EMFGQLTGGLEAAWSKLKGEEVLTKDNIAEPMRDIRRALLEADVSLPVVRRFVQSVSDQAVGMGVIRGVKPDQQLVKIVHDELVKLMGGEVSELQFAKSGPTVILLAGLQGVGKTTVCAKLACYLKKQGKSCMLIAGDVYRPAAIDQLVILGEQVGVPVYTAGTDVKPADIAKQGLKEAKKNNVDVVIMDTAGRLQIDKGMMDELKDVKKFLNPTEVLLVVDAMTGQEAAALVTTFNVEIGITGAILTKLDGDSRGGAALSVKEVSGKPIKLVGRGERMEDLEPFYPDRMAGRILGMGDVLSFVEKATEVMRQEDAEDLQKKIMSAKFDFNDFLKQTRAVAKMGSMTRVLGMIPGMGKVSPAQIREAEKNLLVMEAMIEVMTPEERERPELLAESPERRKRIAKDSGKTEQQVSALVAQIFQMRVKMKNLMGVMEGGSIPALSGLEDALKAEQKAPPGTARRKRKADSRKKFVESASSKPGPRGFGSGN
Turning to B2, the binding result in test [2] is listed as “binds”.

B3: SecY1 (protein, UniProt Q38885 68-551)
chain: SSEASVFDPLGINPDETSGLSSIWESFVSLLSPSFESSSGNRRDKPSSGRGVAAAIEDSSIDFGDFFKGPLPGKFLKLLGFLALSRLGIYIPLGGVNREAFVGNLDQNSILSTLDTFSGGGIGRLGICSLGIVPFINAQIVFQLLAQVYPKLQDLQKKEGEAGRKKILQYTRYASVGFAIVQAIGQVFYLRPYVNDFSTEWVVSSVTLLTLGSVLTTYIGERISDLKLGNGTSLLIFTSIISYLPASFGRTTAEALQEGNYTGLGTIVVSFLLLVLGIVYVQEAERKIPLNYASRYTSKAGGLQKSAYLPFKVNSAGVMPIIFSTSSLALPATLARFTGISALKNVAFALTPGGSFYLPTNILLIAFFNYYYTFLQLDPDDVSEQLKRQGASIPLVRPGKSTALFIKTVLGRISVLGSAFLAVLAAGPAVVEQITHLTAFRGFAGTSVLILVGCATDTARKVQAEIISQKYKNIEFYELDKYDP
Consider B3, for which the figures for the binding result in test [1] and in test [2] were “no binding” and “binds”, respectively.

B4: FtsY (protein, UniProt O80842 41-366)
chain: CSAGPSGFFTRLGRLIKEKAKSDVEKVFSGFSKTRENLAVIDELLLFWNLAETDRVLDELEEALLVSDFGPKITVRIVERLREDIMSGKLKSGSEIKDALKESVLEMLAKKNSKTELQLGFRKPAVIMIVGVNGGGKTTSLGKLAHRLKNEGTKVLMAAGDTFRAAASDQLEIWAERTGCEIVVAEGDKAKAATVLSKAVKRGKEEGYDVVLCDTSGRLHTNYSLMEELIACKKAVGKIVSGAPNEILLVLDGNTGLNMLPQAREFNEVVGITGLILTKLDGSARGGCVVSVVEELGIPVKFIGVGEAVEDLQPFDPEAFVNAIFS
With B4, the binding entry in test [2] is “binds”.

Source of the values: PMC11006888.
